The campaign covered roughly 140,000 compounds. About 4,300 (3.1%) were called active. Inconclusive means that the source gave no clear call. Such entries were picked first, then a sample of the others.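 The calls were made as follows: active = readout at or below -70, meaning at least 70% loss of cells showing the perinucleolar compartment, a nuclear body marking cancer cells; inconclusive = readout between -30 and a set limit; inactive = the rest.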
assay: High Content Assay for Compounds that inhibit the Assembly of the Perinucleolar Compartment; conditions: PC3M PTB-GFP, PNC prevalence imaging, 16 h; at 10 µM; stronger effect = lower value;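 also: plate controls were DMSO wells for no effect and camptothecin positive control wells for full effect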
Method in brief: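 Compounds are pinned in duplicate onto adhered PC3M cells stably expressing GFP-tagged PTB and incubated 16 h at 37 C. Cells are then fixed, nuclei stained with Hoechst, and PNC-positive cells counted.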

SMILES | activity change (PNC), negative = inhibition
CC1=NN(C(=O)c2ccc(Cn3ccc([N+](=O)[O-])n3)cc2)C(O)(C(F)(F)F)C1 (configuration not stated) | inconclusive: -34.5%
Cc1ccccc1-c1cc(C(=O)Nc2sc(C(=O)OC(C)C)c(C)c2C#N)c2ccccc2n1 | inconclusive: -55%
COCc1cc(C)nc(SCC(=O)Nc2ccc(C)c(C)c2)c1C#N | inactive: -29.7%
CON(C)c1nc(OCC#N)nc(N(C)C)n1 | inconclusive: -43.7%
Cc1ccc(CSCC(=O)Nc2c(C)n(C)n(-c3ccccc3)c2=O)cc1 | inconclusive: -38.2%
O=C(CC(C(=O)O)c1ccccc1)Nc1cccc2ccccc12 (configuration not stated) | inconclusive: -33.3%
O=C1c2ccccc2C(=O)N1c1cccc(-c2nc3ccccc3o2)c1 | active: -88.7%
COc1cc(-c2noc(CCCC(=O)NCc3ccco3)n2)cc(OC)c1OC | active: -100%
CCN(CC(=O)Nc1ccc(NC(C)=O)cc1)C(=O)COc1ccc(C(=O)c2ccccc2)cc1 | inactive: -2.17%
CCOc1ccccc1OCCCNCc1ccco1 | inactive: 23.8%
C=CCn1c(SCC(=O)NCc2ccccc2)nnc1-c1ccccc1O | inactive: 14.2%
Cc1ccc2cc(/C=N/Nc3nc4ccccc4[nH]3)c(Cl)nc2c1 | active: -87.9%
COCCCNC(=S)N(Cc1ccccc1)Cc1ccccc1 | inconclusive: -48.6%
O=P(CO)(Cc1ccccc1)Cc1ccccc1 | inconclusive: -38%
COC(=O)c1ccc(CNCC(=O)Nc2ccc(C(=O)OC)cc2)cc1 | inactive: 16.7%
O=C(CCl)Nc1ccc(N=Nc2ccccc2)cc1 | active: -122%
Cc1cc(C)c(S(=O)(=O)N(CC(=O)NCc2cccnc2)C2CCCCC2)c(C)c1 | active: -87.6%
COCCNCC(=O)NC12CC3CC(CC(C3)C1)C2 | inactive: 27.1%
CS(=O)(=O)N(CC(=O)Nc1ccccc1C(=O)NCc1ccccc1)c1ccc2c(c1)OCCO2 | inconclusive: -38.1%
CCOc1cc(S(=O)(=O)NCc2ccccc2)ccc1F | inconclusive: -55.2%
O=c1[nH]c2cccnc2n1Cc1ccco1 | inconclusive: -50.5%
COC(=O)c1ccc(NC(=O)CN(C)S(=O)(=O)c2ccc(OC)c(C)c2)cc1 | inconclusive: -54.5%
O=C(c1cc(S(=O)(=O)N2CCOCC2)ccc1F)N1CCCc2ccccc21 | inconclusive: -63.6%

SMILES | activity change (PNC), negative = inhibition
O=C(CSc1nc2ncc(Br)cc2[nH]1)c1ccc([N+](=O)[O-])cc1 | inconclusive: -35.8%
Cc1ccc(C(=O)O)cc1NC(=S)NC(=O)C(c1ccccc1)c1ccccc1 | inconclusive: -64.3%
COC(=O)c1c(C)[nH]c(O)c1C=Nc1ccc(C(C)C)cc1 | inactive: 47%
Cc1ccc2nc(SCC(=O)N3CCN(C(=O)c4ccco4)CC3)[nH]c2c1 | inconclusive: -60.3%
O=S1(=O)CCN2C(=N1)SC1=C2CCN(Cc2ccccc2)C1 | inconclusive: -54.7%
CC(C)N1CC=C2C(C#N)=C(N)C(C#N)(C#N)C(c3ccccc3)C2C1 (configuration not stated) | active: -107%
O=C(/C(=C/c1ccccc1Cl)c1ccccc1)N1CCOCC1 | inconclusive: -63.1%
Cn1c(Cc2cccs2)nnc1SCC(=O)N1CCCc2ccccc21 | inconclusive: -41.8%
Cc1ccc(NC(=O)C(=O)NCCN2CCN(Cc3ccc([N+](=O)[O-])cc3)CC2)cc1 | inconclusive: -51.7%
O=C(CSc1nnnn1Cc1ccccc1)Nc1ccc2c(c1)OCO2 | inactive: 33.9%
CCOC(=O)N1CCN(C(=O)Cc2ccc(Cl)cc2)CC1 | inconclusive: -36.8%
COc1ccc(S(=O)(=O)N2CCOCC2)cc1NC(=O)COc1ncnc2ccccc12 | inactive: -3.34%
Cc1cc(C)cc(NC(=S)N=Nc2c(O)n(C)c3ccc(S(=O)(=O)N4CCOCC4)cc23)c1 | inconclusive: -52%
CCOC(=O)c1sc(N/N=C/c2cccc(C)c2)nc1C | inconclusive: -46.4%
CC(C)C1Cc2[nH]c(=O)c(C(=O)O)cc2CO1 (configuration not stated) | active: -111%
Cc1ccc(C(=O)N2CCN=C2SCc2ccc([N+](=O)[O-])cc2)cc1 | inactive: -20.2%
Cc1ccc(P(=O)(CC(=O)O)c2ccc(C)cc2)cc1 | inconclusive: -38.8%
CCOC(=O)Nc1cc(C(=O)OCC)c(C)nc1C | inconclusive: -54.3%
C[N+](C)(C)c1ccc(/C=N/Nc2nc(Cl)c(C#N)c(Cl)c2Cl)cc1 | inconclusive: -42.6%
CCOc1cccc(C(=O)Nc2cccc(-c3nc4ncccc4o3)c2C)c1 | inconclusive: -46%
CCOC(=O)CC1=C(C(=O)OCC)C(c2cc(OC)c(OC)cc2OC)C(C#N)=C(N)O1 (configuration not stated) | inconclusive: -36.3%
CC(C)C(=O)NC(c1cccs1)c1cc([N+](=O)[O-])c2cccnc2c1O (configuration not stated) | inactive: 6.71%
CCC(C)Oc1nc2ccccc2nc1NS(=O)(=O)c1ccccc1 (configuration not stated) | inconclusive: -32.1%

SMILES | activity change (PNC), negative = inhibition
CCOC(=O)c1sc(-c2ccccc2)cc1N | inconclusive: -34.7%
CC1(C)Cc2nc3sc4c(=O)n(CC(N)=O)cnc4c3cc2CO1 | inconclusive: -37.3%
CCc1ccc(-c2cn3nc(C)c(C)nc3n2)cc1 | inconclusive: -37.4%
CC(C)OC(=O)CSc1ncnc2c1cnn2Cc1ccccc1 | inconclusive: -68.2%
CCOC(=O)c1ccc(NC(=O)CS(=O)(=O)c2cn(CC)c3ccccc23)cc1 | inconclusive: -41.8%
CCOC(=O)c1snc(-c2ccc(F)cc2)c1N | inactive: 30%
CC(C)Cn1c(C(C)C)nc([N+](=O)[O-])c1Sc1ccc(Cl)cn1 | inconclusive: -43.4%
Cc1oc(-c2ccc(Cl)cc2)nc1CN1CCCC(C(=O)NCCCN2CCOCC2)C1 (configuration not stated) | inconclusive: -50%
COc1cc(C)ccc1OCCCOc1c(Cl)cccc1Cl | inactive: 9.57%
Clc1cc(CSc2ccccc2)nc(-c2ccccc2)n1 | inconclusive: -44.3%
COc1cc(-c2nnc(-c3cccs3)o2)cc(OC)c1OC | inconclusive: -34.9%
COc1ccc(CCNC(=O)Cn2c(-c3nonc3N)nc3ccccc32)cc1OC | inconclusive: -68.5%
CCOC(=O)Cc1nnc(NC(=O)CC)s1 | inconclusive: -35.1%
COc1ccccc1Nc1ncccc1C(=O)NCc1ccccc1 | inactive: 30.6%
CC(=O)c1ccc(N2CCN(C(=O)c3ccc4c(=O)n(-c5ccccc5)c(=O)[nH]c4c3)CC2)cc1 | active: -108%
CCC(=O)Nc1nc(C)cc(SCC(=O)OC)n1 | inconclusive: -33.6%
COc1ccc(CCNC(=O)c2ccc(-c3ccc([N+](=O)[O-])cc3Cl)o2)cc1OC | inconclusive: -30.7%
Cc1nnc(SCC(N)=O)n1CCc1ccccc1 | inconclusive: -49.7%
Cc1ccc(S(=O)(=O)CCC(=O)NCc2ccccc2Cl)cc1 | inconclusive: -51.8%
COc1ccc(Nc2ncnc3ccccc23)cc1 | inconclusive: -30.3%
O=C(NCc1ccccc1)NC1(C(=O)N2CCCC2)CCCCC1 | inconclusive: -76.8%
Cc1c(Cl)ccc2sc(NC(=O)CN3C(=O)c4ccccc4C3=O)nc12 | inconclusive: -45.2%
Cc1ccc(Nc2ccc(S(=O)(=O)N3CCOCC3)cc2[N+](=O)[O-])cc1C | inconclusive: -34%

SMILES | activity change (PNC), negative = inhibition
O=C(O)c1ccc2c(c1)ncn2C1CCCCC1 | inconclusive: -56.6%
Cc1ccc(NC(=O)c2nccnc2C(=O)O)cc1C | inconclusive: -33.4%
CNC(=S)NNC(=O)c1sccc1C | inconclusive: -35.6%
CCCCNC(=O)C(=O)N/N=C/c1cccc(Br)c1 | inconclusive: -54.1%
CCCCCCCCCCOC(=O)c1csc2nnsc12 | active: -100%
Cc1ccc(S(=O)(=O)NC(=O)Nc2nnc(C)s2)cc1 | inconclusive: -48.3%
Cc1cc2oc(=O)cc(CSc3nc(N)cc(N)n3)c2cc1C(C)C | inconclusive: -30.4%
COc1ccc(N(CC(=O)Nc2cc(C)ccc2C)S(=O)(=O)c2c(C)nn(C)c2C)cc1 | inconclusive: -72.7%
COc1cc(/C=C(\NC(=O)c2ccccc2)C(=O)NCCO)c([N+](=O)[O-])cc1OC | active: -93.1%
CCn1c(C)cc(/C=C2/NC(=O)N(CC(=O)Nc3cccc(C)c3)C2=O)c1C | inconclusive: -52.8%
COC(=O)C1=C(NC(=O)c2ccc(C)c(C)c2)CCS1 | inconclusive: -44.8%
CC(=O)NCC(=O)NC1(C(=O)NC2CCCC2)CCCCC1 | inconclusive: -38.7%
COc1cc(C=O)ccc1OCCCCOc1ccccc1[N+](=O)[O-] | inconclusive: -53.4%
S=C(c1ccc(-c2cc(Cl)ccc2Cl)o1)N1CCCCC1 | inconclusive: -33.2%
Cc1ccc(C)c2c(SC(C)C(=O)NCc3ccco3)nc(-c3ccccc3)nc12 (configuration not stated) | active: -100%
COc1ccc(C(=O)NN)cc1COc1ccc(Br)cc1 | inactive: 26.7%
Cc1cc(C)n(-c2nc(C)nc3c2cnn3-c2ccccc2)n1 | active: -96.2%
CC(C)(C)c1cc(NC(=O)CSc2nncs2)n(-c2ccccc2)n1 | inactive: -2.35%
COc1cc(NC(=O)COC(=O)CNS(=O)(=O)c2ccc(F)c(F)c2F)cc(OC)c1 | inactive: 27.8%
CCOC(=O)N1CCN(c2ccccc2O)CC1 | inactive: 43.3%
COc1ccc(N2CCN(C(=O)CC(NC(N)=O)c3cccc(Oc4ccccc4)c3)CC2)cc1 (configuration not stated) | inconclusive: -38.4%
O=C(NCCSCc1c(F)cccc1Cl)c1ccco1 | inactive: -15.3%
CCCOC(=O)c1ccc(NC(=O)c2cn(CC)c3nc(C)ccc3c2=O)cc1 | inactive: -22.6%

Some of the entries above, reformatted:
SMILES	activity change (PNC), negative = inhibition
O=c1[nH]c2cccnc2n1Cc1ccco1	inconclusive: -50.5%
COC(=O)c1ccc(NC(=O)CN(C)S(=O)(=O)c2ccc(OC)c(C)c2)cc1	inconclusive: -54.5%
O=C(c1cc(S(=O)(=O)N2CCOCC2)ccc1F)N1CCCc2ccccc21	inconclusive: -63.6%
O=C(CSc1nc2ncc(Br)cc2[nH]1)c1ccc([N+](=O)[O-])cc1	inconclusive: -35.8%
Cc1ccc(C(=O)O)cc1NC(=S)NC(=O)C(c1ccccc1)c1ccccc1	inconclusive: -64.3%
COC(=O)c1c(C)[nH]c(O)c1C=Nc1ccc(C(C)C)cc1	inactive: 47%
Cc1ccc2nc(SCC(=O)N3CCN(C(=O)c4ccco4)CC3)[nH]c2c1	inconclusive: -60.3%
O=S1(=O)CCN2C(=N1)SC1=C2CCN(Cc2ccccc2)C1	inconclusive: -54.7%
CC(C)N1CC=C2C(C#N)=C(N)C(C#N)(C#N)C(c3ccccc3)C2C1 (configuration not stated)	active: -107%
O=C(/C(=C/c1ccccc1Cl)c1ccccc1)N1CCOCC1	inconclusive: -63.1%
Cn1c(Cc2cccs2)nnc1SCC(=O)N1CCCc2ccccc21	inconclusive: -41.8%
Cc1ccc(NC(=O)C(=O)NCCN2CCN(Cc3ccc([N+](=O)[O-])cc3)CC2)cc1	inconclusive: -51.7%
O=C(CSc1nnnn1Cc1ccccc1)Nc1ccc2c(c1)OCO2	inactive: 33.9%
CCOC(=O)N1CCN(C(=O)Cc2ccc(Cl)cc2)CC1	inconclusive: -36.8%
COc1ccc(S(=O)(=O)N2CCOCC2)cc1NC(=O)COc1ncnc2ccccc12	inactive: -3.34%
Cc1cc(C)cc(NC(=S)N=Nc2c(O)n(C)c3ccc(S(=O)(=O)N4CCOCC4)cc23)c1	inconclusive: -52%
CCOC(=O)c1sc(N/N=C/c2cccc(C)c2)nc1C	inconclusive: -46.4%
CC(C)C1Cc2[nH]c(=O)c(C(=O)O)cc2CO1 (configuration not stated)	active: -111%
Cc1ccc(C(=O)N2CCN=C2SCc2ccc([N+](=O)[O-])cc2)cc1	inactive: -20.2%
Cc1ccc(P(=O)(CC(=O)O)c2ccc(C)cc2)cc1	inconclusive: -38.8%
CCOC(=O)Nc1cc(C(=O)OCC)c(C)nc1C	inconclusive: -54.3%
C[N+](C)(C)c1ccc(/C=N/Nc2nc(Cl)c(C#N)c(Cl)c2Cl)cc1	inconclusive: -42.6%
CCOc1cccc(C(=O)Nc2cccc(-c3nc4ncccc4o3)c2C)c1	inconclusive: -46%
CCOC(=O)CC1=C(C(=O)OCC)C(c2cc(OC)c(OC)cc2OC)C(C#N)=C(N)O1 (configuration not stated)	inconclusive: -36.3%
CC(C)C(=O)NC(c1cccs1)c1cc([N+](=O)[O-])c2cccnc2c1O (configuration not stated)	inactive: 6.71%
CCC(C)Oc1nc2ccccc2nc1NS(=O)(=O)c1ccccc1 (configuration not stated)	inconclusive: -32.1%
